We go through three molecules from publication doi:10.1101/2020.06.27.175620 (bioRxiv, 2020).

For test [1], the target named is T1, cytochrome c1 of CIII2 (Rhodobacter capsulatus) (UniProt D5ANZ4).
T1 sequence: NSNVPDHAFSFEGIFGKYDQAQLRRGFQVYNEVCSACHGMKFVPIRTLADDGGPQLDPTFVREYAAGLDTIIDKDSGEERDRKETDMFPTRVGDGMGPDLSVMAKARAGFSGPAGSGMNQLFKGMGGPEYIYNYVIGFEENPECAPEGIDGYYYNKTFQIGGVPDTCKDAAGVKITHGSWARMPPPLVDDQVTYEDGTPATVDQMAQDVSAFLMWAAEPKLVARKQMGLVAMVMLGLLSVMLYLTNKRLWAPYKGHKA
In words: cryo-EM structure.

Test [2] addresses T2, CcoP subunit of the cbb3-type CIV (Rhodobacter capsulatus) (UniProt D5ARP7).
T2 sequence: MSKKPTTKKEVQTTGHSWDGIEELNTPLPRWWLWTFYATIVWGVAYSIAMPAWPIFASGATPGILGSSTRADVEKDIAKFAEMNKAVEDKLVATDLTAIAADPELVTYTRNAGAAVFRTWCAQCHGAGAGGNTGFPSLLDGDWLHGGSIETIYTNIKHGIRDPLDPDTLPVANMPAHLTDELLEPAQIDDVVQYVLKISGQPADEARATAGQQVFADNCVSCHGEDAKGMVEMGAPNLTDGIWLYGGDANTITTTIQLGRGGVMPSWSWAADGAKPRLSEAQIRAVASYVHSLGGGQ
In words: cross-linking.

Test [3] has as its target T1, cytochrome c1 of CIII2 (Rhodobacter capsulatus). In words: cross-linking.
For test [4], the target named is T3, cytochrome b of CIII2 (Rhodobacter capsulatus, UniProt D5ANZ3 1-437).
T3 sequence: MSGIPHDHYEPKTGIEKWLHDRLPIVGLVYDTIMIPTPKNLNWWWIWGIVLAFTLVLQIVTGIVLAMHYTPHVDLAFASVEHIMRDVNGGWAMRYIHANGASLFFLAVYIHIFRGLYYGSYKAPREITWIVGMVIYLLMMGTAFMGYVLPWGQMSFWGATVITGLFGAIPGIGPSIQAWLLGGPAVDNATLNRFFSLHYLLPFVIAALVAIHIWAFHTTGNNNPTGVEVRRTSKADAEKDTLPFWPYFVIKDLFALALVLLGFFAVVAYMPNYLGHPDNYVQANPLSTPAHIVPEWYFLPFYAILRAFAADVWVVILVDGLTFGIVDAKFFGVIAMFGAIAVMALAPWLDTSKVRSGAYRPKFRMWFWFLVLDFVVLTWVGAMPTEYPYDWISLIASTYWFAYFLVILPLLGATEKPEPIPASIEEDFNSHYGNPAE
The test can be described thus: cryo-EM structure.

Where two headings read alike, the source gives them in different places. No constants are given. Whether binding was seen depends on the method and setting. For some assays here: In cells and extracts the contact can be indirect. Some results given as binding are weak or reduced against the parent protein; the word gives no strength.

B1: Rieske FeS protein of CIII2 (natural protein, Rhodobacter capsulatus)
chain: MSHAEDNAGTRRDFLYHATAATGVVVTGAAVWPLINQMNASADVKAMASIFVDVSAVEVGTQLTVKWRGKPVFIRRRDEKDIELARSVPLGALRDTSAENANKPGAEATDENRTLPAFDGTNTGEWLVMLGVCTHLGCVPMGDKSGDFGGWFCPCHGSHYDSAGRIRKGPAPRNLDIPVAAFVDETTIKLG
As for B1, the binding result in test [1] is recorded as “binds”.

B2: cytochrome c2 (soluble cytochrome c) (protein, UniProt P00094 22-137)
chain: GDAAKGEKEFNKCKTCHSIIAPDGTEIVKGAKTGPNLYGVVGRTAGTYPEFKYKDSIVALGASGFAWTEEDIATYVKDPGAFLKEKLDDKKAKTGMAFKLAKGGEDVAAYLASVVK
B2: the binding result in test [2] and in test [3] was “binds” each time.

B3: CcoP subunit of the cbb3-type CIV (protein, UniProt D5ARP7 1-297)
chain: MSKKPTTKKEVQTTGHSWDGIEELNTPLPRWWLWTFYATIVWGVAYSIAMPAWPIFASGATPGILGSSTRADVEKDIAKFAEMNKAVEDKLVATDLTAIAADPELVTYTRNAGAAVFRTWCAQCHGAGAGGNTGFPSLLDGDWLHGGSIETIYTNIKHGIRDPLDPDTLPVANMPAHLTDELLEPAQIDDVVQYVLKISGQPADEARATAGQQVFADNCVSCHGEDAKGMVEMGAPNLTDGIWLYGGDANTITTTIQLGRGGVMPSWSWAADGAKPRLSEAQIRAVASYVHSLGGGQ
Take B3: the binding entry in test [4] and in test [4] (record 2) was “binds” each time.
